Data taken from patent US9968660B2, “Method of bone regeneration or bone augmentation” (TOYOBO CO., LTD., priority 2016, dated 2018).
At least one peptide structure holds a part that was inferred or is arguable (an end, a ring closure or a residue).

Test system: standardized full-thickness bone defect (diameter: about 9 mm) in the calvarium
Experiment: Test Example 1: rat calvarial bone defect, OCP or β-TCP/collagen composite + teriparatide (subcutaneous injection)
Type: in vivo, Male Wistar rats
[1] = PTH groups: teriparatide 10 μg/kg s.c. every day

CC[C@H](C)[C@H](NC(=O)[C@H](CCC(=O)O)NC(=O)[C@H](CO)NC(=O)[C@@H](NC(=O)[C@@H](N)CO)C(C)C)C(=O)N[C@@H](CCC(N)=O)C(=O)N[C@@H](CC(C)C)C(=O)N[C@@H](CCSC)C(=O)N[C@@H](Cc1c[nH]cn1)C(=O)N[C@@H](CC(N)=O)C(=O)N[C@@H](CC(C)C)C(=O)NCC(=O)N[C@@H](CCCCN)C(=O)N[C@@H](Cc1c[nH]cn1)C(=O)N[C@@H](CC(C)C)C(=O)N[C@@H](CC(N)=O)C(=O)N[C@@H](CO)C(=O)N[C@@H](CCSC)C(=O)N[C@@H](CCC(=O)O)C(=O)N[C@@H](CCCNC(=N)N)C(=O)N[C@H](C(=O)N[C@@H](CCC(=O)O)C(=O)N[C@@H](Cc1c[nH]c2ccccc12)C(=O)N[C@@H](CC(C)C)C(=O)N[C@@H](CCCNC(=N)N)C(=O)N[C@@H](CCCCN)C(=O)N[C@@H](CCCCN)C(=O)N[C@@H](CC(C)C)C(=O)N[C@@H](CCC(N)=O)C(=O)N[C@@H](CC(=O)O)C(=O)N[C@H](C(=O)N[C@@H](Cc1c[nH]cn1)C(=O)N[C@@H](CC(N)=O)C(=O)N[C@@H](Cc1ccccc1)C(=O)O)C(C)C)C(C)C [untreated/PTH, teriparatide]
stained pathological specimens, low magnification (FIG. 3): content of the defect (8 weeks after surgery, hematoxylin-eosin, PTH groups: teriparatide 10 μg/kg s.c. every day): thin bone tissue extending from the defect margins | ratio of new bone (n-Bone %) in the defect (8 weeks after surgery, histological quantification, PTH groups: teriparatide 10 μg/kg s.c. every day, average ± SD): 31.1±10.2% | radiopaque image in the bone defect, X-ray photographs from above (FIG. 1) [1]: radiopaque images in the defects were equally scarce | radiopaque image in the bone defect, X-ray photographs, cross sections (FIG. 2) [1]: radiopaque images extending from the defect margins (∇) were observed; however, their thickness was thinner than that of the existing bone | new bone formation, conclusion from FIGS. 1 to 5 (teriparatide s.c. alone or combined, compared with OCP or β-TCP alone): new bone formation was not observed
